Library screen at single concentrations

Source: ChEMBL document CHEMBL3988442, “University of Dundee, Small-Polar-MMV Screening Library” (2021).

Toxoplasma: 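Assay of Toxoplasma gondii numbers, read through their beta-galactosidase reporter with a colour substrate. Concentration: 10 µM. Higher reads as fewer parasites (inferred from which compounds were picked for retests). About 67,000 compounds were tested under these conditions; 0.38% (about 260) showed 50% or more at least once.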
T. brucei: 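Whole-parasite assay of Trypanosoma brucei over 72 hours; the read-out is not stated. Concentration: 30 µM. Direction is inferred from retests: higher values go with stronger inhibition. Values scatter widely below zero; nearly all retest evidence comes from the higher of the two concentrations used. About 64,000 compounds were tested under these conditions; 1.5% (about 940) showed 50% or more at least once.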

Each number is a percent effect as filed.
The controls that fix the scale are not given in the record; negative values are as filed.
This is an unselected part of the compounds tested.
A dash means the value is not listed here; it may have been measured.

Compound | Toxoplasma | T. brucei
CC(C)CNC[C@H]1COCc2nc3cccnc3n21 | 4.187 | 8.843
CCS(=O)(=O)N1CCc2ccc(NC(=O)Nc3cccc(SC)c3)cc21 | 0.7761 | 33.26
CN1CCN(c2ccc(NCc3ccsc3)cn2)CC1 | -16.17 | -25
O=C(O)C(F)(F)F.[H][C@@]12CCN(CC(C)C)[C@@]1([H])CCN2C(=O)N1CCCC1 | -1.638 | -26.65
CNC(=O)c1cccc(CC2COCCN(Cc3ccsc3)C2)n1 (configuration not stated) | 4.393 | -
CNC(=O)c1cc(C)n(-c2ccccc2)n1 | -8.362 | 9.461
Cc1ccc(C(C)NC(=O)CSCC(N)=O)cc1 (configuration not stated) | 11.45 | -6.704
CN(C)C(=O)CN1CCCCC1c1nc(N)ncc1-c1ccc(Cl)cc1 (configuration not stated) | 0.25 | 18.48
Cc1ccc(CS(=O)(=O)N2Cc3c(CN(C)C)nn(C)c3C2)cc1.O=C(O)C(F)(F)F | -24.55 | 3.962
Cc1nc(CNC(=O)NC2CCN(c3ncccc3Cl)C2)oc1C (configuration not stated) | -6.949 | -45.04
O=C(O)C(F)(F)F.[H][C@]12CN(CCN(C)C)C(=O)[C@@]1([H])CN(S(=O)(=O)c1cccs1)C2 | -3.769 | -25.74
Nc1nc2c(c(NCc3ccncc3)n1)CCCC2 | 12.09 | -76.49
COC(=O)c1cccn1C1CCN(Cc2ccccc2)CC1 | -3.782 | 9.119
CC(C)CC(CC(C)C)NC(=O)c1ccn(C)c(=O)c1 | 6.788 | -2.895
CN(C)S(=O)(=O)c1ccc2c(c1)N(Cc1nccn1C)CCC2 | 0.7955 | 6.029
O=c1[nH]c2cc3c(cc2cc1CN1CCCC1c1ccccn1)CCC3 (configuration not stated) | 3.617 | -71.94
Brc1cccc(C2(CNCc3cc[nH]c3)CCOCC2)c1 | -2.697 | -38.22
Cl.Cl.O=C(NCc1cncc2c1CCN(CC1CCOC1)C2)c1ccno1 (configuration not stated) | 3.545 | 1.761
C[C@@H]1CN(C(=O)c2cc(Cn3ccc4ccccc43)[nH]n2)C[C@H](C)O1 | 28.18 | -53.18
CC(C)c1nc(C2CCCN2C(=O)c2cc(Cl)c[nH]2)no1 (configuration not stated) | 10.34 | -0.4312
CC(C)(C)OC(=O)N1CSC[C@@H]1C(=O)NCc1ccsc1 | 4.359 | -12.82
COc1cccc([C@@H]2CCN(Cc3cn(C)c4ccccc34)C[C@H]2O)c1 | 0.9484 | 11.96
CCCc1cc(N(CCOC)CC(F)F)n2ncnc2n1 | -38.62 | -106.4
O=C(O)C(F)(F)F.[H][C@@]12CCN(CC3CCOCC3)[C@@]1([H])CCN2C(=O)c1cccc(Cl)c1 | 4.936 | 13.39
CNc1ccnc(N2CC[C@@](O)(C3CCOCC3)[C@H](C)C2)n1 | -8.134 | -18.63
Cc1nnc2n1CCN(Cc1csc(-c3ncccn3)n1)C2 | -5.139 | -16.49
CCN(C(C)=O)C1CCN(c2nccc(C3CCCC3)n2)C1 (configuration not stated) | 7.489 | -2.877
Cc1cc2cc(C(=O)N[C@@H]3CC[C@@H](N4CCCC4)[C@@H]3O)ccc2o1 | 2.557 | 10.59
NCC1Cc2cccc(-c3nccc(N4CCC(O)CC4)n3)c2O1 (configuration not stated) | 10.2 | -37.83
Cc1cc(CC(C)NC2CCN(CC(C)C)CC2)[nH]n1 (configuration not stated) | -57.01 | 11.44
COc1ccc(CCc2nnc(NC(=O)C3CC34CCC4)s2)cc1OC (configuration not stated) | 4.568 | 18.96
CC(C)CC(=O)N1CCN(C(=O)N(C)C)CC2(CC(=O)N(C)C2)C1 (configuration not stated) | 8.345 | 2.805
Cc1ccc(C(=O)NCCCN(C)S(C)(=O)=O)cc1-n1cccc1 | 3.555 | -4.404
O=C(Cn1cc(C2CC2)nn1)NC(c1cc(F)ccc1F)C1CC1 (configuration not stated) | 2.201 | -7.598
COCC(=O)N1CCC2(CC1)CCN(Cc1ccccn1)C2=O.O=C(O)C(F)(F)F | -6.082 | -21.23
CN1CCN(c2nc(O)c3c(-c4ccccn4)ccnc3n2)CC1 | 3.369 | 12.23
Cc1ccc(S(=O)(=O)NC(=O)COc2ccc(CC#N)cc2)s1 | 7.139 | -27.23
CCCc1noc(CCC(=O)N2CCN(C)CC2c2ccccc2)n1 (configuration not stated) | 1.332 | -57.73
CN(Cc1cn2c(n1)CN(C(=O)N(C)C)CC2)Cc1ccco1 | 3.837 | -21.04
O=C(C1CCCN1S(=O)(=O)C1CCCC1)N1CCSCC1 (configuration not stated) | 5.37 | -73.98
CCOCCC(=O)Nc1cccc(Oc2ccccn2)c1 | -0.1508 | -8.32
Cn1cc2c(n1)C(COCC1CC1)CN(Cc1ccsc1)C2 (configuration not stated) | -4.949 | -6.651
OC(COc1ccc2c(c1)OCO2)CN1CC(n2cccn2)C1 (configuration not stated) | -22.87 | -16.89
Cc1cc(C)n(CC2CCCN2C(=O)c2ccc(N(C)C)nn2)n1 (configuration not stated) | 2.779 | 11.42
Cn1cc(N2CC3(CCN(Cc4nccn4C)C3)CC2=O)cn1.O=C(O)C(F)(F)F (configuration not stated) | -3.896 | -21.47
CN1CCN(Cc2cccnc2)C(=O)C12CCN(S(C)(=O)=O)CC2 | -2.552 | -18.19
N#CCc1ccc(NC(=O)N[C@H](CO)Cc2ccc(O)cc2)cc1 | -2.222 | -55.79
O=C(c1cccnc1O)N1CCN(Cc2ccccc2F)CC1 | 0.4837 | -36.68
CCOc1ccccc1N1CCN(c2nnc(C)o2)CC1 | -6.443 | -34.99
Cc1cc(C)n(CC(C)CNC(=O)[C@@H](C)NC(=O)OC(C)(C)C)n1 (some centres not stated) | 2.061 | 9.638
Cn1ncc2c(N3CCCC4(CCNC4)C3)nc(C(C)(C)C)nc21 (configuration not stated) | 9.697 | -
COc1ccc(CN2CCCn3cnc(COCC4CC4)c3C2)cc1.O=C(O)C(F)(F)F | 5.911 | -2.836
CCC1CN(C)c2ccccc2CN1C(=O)c1c[nH]c(=O)cc1C (configuration not stated) | 2.166 | -21.31
O=C(c1ccc2[nH]ccc2c1)N1Cc2nc(CN3CCCC3)oc2C1 | -12.86 | -
CS(=O)(=O)c1ccc(NC(=O)CSC(F)(F)F)cn1 | -0.8999 | -40.04
CCCn1cc(NC(=O)c2cccc(CN3CC[C@H](O)C3)c2)nn1 | -15.19 | -1.742
O=C(NCCCn1cccn1)c1nnc2ccccc2n1 | 12.99 | -
Cc1nn(C)c(C)c1C1COCCN1c1ncnc2c(C)cccc12 (configuration not stated) | 5 | 29.58
Cc1cc(C2CCCCN2C(=O)CN2C(=O)OC(C)(C)C2=O)no1 (configuration not stated) | 15.33 | -43.83
CC(O)CN1CCN(C(=O)CN(C)c2cnccn2)CC1 (configuration not stated) | -6.463 | -10.78
CC(C)Cc1nc(CN2CCc3onc(-c4cccc(F)c4)c3C2)no1 | -32.42 | 18.46
COC(=O)CNC(=O)Cn1ccc2cccc(OC)c21 | -10.91 | -5.486
CN1CCCC1CNC(=O)CCOc1ccc(Cl)cc1 (configuration not stated) | 1.387 | 9.242
CCOC1CCN(C(=O)NCCN(C)C(=O)OC(C)(C)C)CC1 | 13.59 | -47.48
Cc1cccc(C(=O)Nc2cccc3c2C(=O)NC3)n1 | 8.751 | -9.249
CCN1CC2(CC1=O)CN(C(=O)COC)CCN(S(C)(=O)=O)C2 (configuration not stated) | -2.181 | -47.09
CC(C)NC(=O)[C@@H](NC(=O)N1CCN(c2ccc(Cl)cc2)CC1)C(C)C | -0.3064 | 72.09
Cc1nn(C)c(N2CCOCC2)c1CNC1CCS(=O)(=O)C1 (configuration not stated) | 12.33 | -43.49
CC(=O)N[C@H]1CN(S(=O)(=O)N(C)Cc2ccccc2)C[C@@H]1C1CC1 | -0.3446 | -1.904
CN(C)c1ccc(CNC(=O)NCCc2ccccn2)cn1 | -16.47 | -7.173
Cc1noc(C)c1CN1CCN(C(C)c2nc(C3CC3)no2)CC1 (configuration not stated) | 21.47 | -
Cc1nccn1C1CCCN(C(=O)Cn2ccc(=O)n(C)c2=O)C1 (configuration not stated) | 7.563 | -24.75
CNc1cccc(C2CCCN(C(=O)c3coc(C)n3)C2)n1 (configuration not stated) | -11.24 | 1.275
Cc1ccc(N2CCC3(CCC(=O)N3Cc3ccncc3)CC2)nn1.O=C(O)C(F)(F)F | -26.3 | 6.676
CCc1ncc(S(C)(=O)=O)c(C2CCCNC2)n1 (configuration not stated) | 16.53 | -18.31
FC1(F)CCNCC12CCN(c1ncccn1)C2 (configuration not stated) | -17.1 | -
CC(C)C(=O)NCCC(=O)N1CCN(c2ccccn2)CC1 | 18.9 | -1.715

8 of the entries, repeated:

Compound,Toxoplasma,T. brucei
CS(=O)(=O)c1ccc(NC(=O)CSC(F)(F)F)cn1,-0.8999,-40.04
CCC1CN(C)c2ccccc2CN1C(=O)c1c[nH]c(=O)cc1C (configuration not stated),2.166,-21.31
Cc1nn(C)c(C)c1C1COCCN1c1ncnc2c(C)cccc12 (configuration not stated),5,29.58
Cc1ccc(N2CCC3(CCC(=O)N3Cc3ccncc3)CC2)nn1.O=C(O)C(F)(F)F,-26.3,6.676
CNC(=O)c1cccc(CC2COCCN(Cc3ccsc3)C2)n1 (configuration not stated),4.393,-
Cc1nccn1C1CCCN(C(=O)Cn2ccc(=O)n(C)c2=O)C1 (configuration not stated),7.563,-24.75
O=C(C1CCCN1S(=O)(=O)C1CCCC1)N1CCSCC1 (configuration not stated),5.37,-73.98
COc1cccc([C@@H]2CCN(Cc3cn(C)c4ccccc34)C[C@H]2O)c1,0.9484,11.96